Measurements from patent publication US11596657B2, “Use of AhR agonist for the preventive or curative treatment of metabolic syndrome and the associated disorders” (INSTITUT NATIONAL DE LA RECHERCHE AGRONOMIQUE, priority 2016, dated 2023).
At least one compound was matched to its structure with a doubt left.

System: GLUTag cells
Assay: GLP-1 secretion by GLUTag cells
Format: cell-based, murine
Conditions: 2 h, Ficz 175 nM, Forskolin 10 μM

`C=C[C@@]1(C)CC(=O)[C@]2(O)[C@@]3(C)[C@@H](O)CCC(C)(C)[C@@H]3[C@H](O)[C@H](OC(C)=O)[C@@]2(C)O1` [Forskolin] was tested, and the GLP-1 secretion was “strong inducer of GLP-1 secretion”.
